PubChem BioAssay AID1259261 | Sanger Institute – 2017
In all, the deposit lists 794 reagents; below is an unselected part. In the full data, 10 (1.3%) were called active. 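Calls reflect knock-down alone without drug; synergy scores with BYL719, cetuximab or trametinib do not affect calls.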 Entries without a mark were called inactive. Not all columns of the deposit are shown. Reagent sequences are not shown. The record does not give: the amount of reagent, the time to read-out.

Assay: 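siRNA screen across the kinome for kinases that are essential and partners synergising with drugs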 (primary screen)
Cell system: HCC2998 human colorectal cancer cells
Reagent: siRNA pool against human genes
Conditions: anchor drugs BYL719 1 µM, cetuximab 5 µg/ml or trametinib 10 nM, each compared with DMSO vehicle
Detection: 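Cell viability relative to non-targeting siRNA, averaged over replicates, with robust z-score for siRNA alone and synergy scores with each anchor drug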
Reading the numbers: viability z-score, knock-down alone: higher = more viable cells than controls
Call rule: 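a knock-down is called essential if its robust z-score without drug is under -3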
Meaning of the calls: active = essential; inactive = no change

Against LIMK2 the deposit lists viability z-score, knock-down alone 0.454.
Against CDKN1B, the values are viability z-score, knock-down alone 1.15.
PIK3C2G scored viability z-score, knock-down alone -1.38.
PRKCD scored viability z-score, knock-down alone -0.00524.
After knock-down of CHD4, the record shows viability z-score, knock-down alone -2.73.
Against CDK11A the deposit lists viability z-score, knock-down alone -2.22.
Knock-down of MAP3K20 came out at: viability z-score, knock-down alone -0.23.
PIP5K1A showed viability z-score, knock-down alone 0.225.
Depletion of NR2F2 gave: viability z-score, knock-down alone 0.00318.
ASPM showed viability z-score, knock-down alone 0.673.
For ADCK5, the values are viability z-score, knock-down alone -0.742.
Against CTNNB1 the deposit lists viability z-score, knock-down alone -2.27.
